Laboratory results published in article PMC7862700.
This is a selection; strong and weak results do not stand in their true shares. For part of these data: At the low end of the ranking, values are background and their order means little. This is one part of the list. For part of these data: The source does not settle which construct or isoform was used.

Columns and labels:
ETS1 = biological target: T1, ETS1 (UniProt P14921); test: DAPPL (digital affinity profiling via proximity ligation, sequencing); conditions: 10 mM Tris-HCl pH 7.5, 50 mM NaCl, 1 mM DTT, 4% glycerol, room temperature, 30 min; GST-TFs on glutathione beads, 16-mer random dsDNA library, 0.1% …; high values mean tight binding; double strand, one strand shown; scale: fold enrichment (6-mer frequency, TF over GST control)
T1 sequence: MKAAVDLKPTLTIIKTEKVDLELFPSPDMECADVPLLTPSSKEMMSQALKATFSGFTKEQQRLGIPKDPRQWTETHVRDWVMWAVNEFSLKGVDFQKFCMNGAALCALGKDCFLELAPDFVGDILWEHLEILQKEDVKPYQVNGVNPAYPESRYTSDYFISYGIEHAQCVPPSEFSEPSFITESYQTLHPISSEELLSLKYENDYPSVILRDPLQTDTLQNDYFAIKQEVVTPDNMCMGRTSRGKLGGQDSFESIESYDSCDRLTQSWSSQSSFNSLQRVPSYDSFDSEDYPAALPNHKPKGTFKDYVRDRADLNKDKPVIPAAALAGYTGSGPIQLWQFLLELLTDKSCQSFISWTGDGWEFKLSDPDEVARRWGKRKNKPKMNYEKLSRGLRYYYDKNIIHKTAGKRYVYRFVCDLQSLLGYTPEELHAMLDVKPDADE

SPDEF = biological target: T2, SPDEF (UniProt O95238); test: as above; conditions: 10 mM Tris-HCl pH 7.5, 50 mM NaCl, 1 mM DTT, 4% glycerol, room temperature, 30 min; GST-TFs on glutathione beads, 16-mer random dsDNA library, 0.1% …; high values mean tight binding; double strand, one strand shown; scale: fold enrichment (6-mer frequency, TF over GST control)
T2 sequence: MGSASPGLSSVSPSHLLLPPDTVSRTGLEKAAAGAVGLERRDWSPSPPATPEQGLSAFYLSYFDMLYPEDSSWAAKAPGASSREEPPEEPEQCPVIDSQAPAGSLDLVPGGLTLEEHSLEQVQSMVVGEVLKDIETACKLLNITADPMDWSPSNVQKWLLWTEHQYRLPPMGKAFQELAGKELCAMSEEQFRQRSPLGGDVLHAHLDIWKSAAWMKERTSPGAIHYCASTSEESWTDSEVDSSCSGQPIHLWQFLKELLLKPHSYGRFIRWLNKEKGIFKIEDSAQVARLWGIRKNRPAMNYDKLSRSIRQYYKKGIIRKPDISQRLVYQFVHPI

Sequence	binding signal (ETS1)	binding signal (SPDEF)
CACATA	1.2	1.11
ACTTGA	1	0.943
TATAAA	1.22	1.21
ACGCTC	0.992	0.885
GCCCAC	1.14	1.06
TAGCGC	0.982	0.898
TCCTAG	1.26	1.4
AAAGCC	1.05	0.863
TCTGAA	1.19	1.23
CACAAA	1.18	1.12
CATGGG	1.02	0.98
TCTGGA	1.02	0.962
ACGTCT	1.17	1.12
TTGAAA	1.22	1.07
GAAACA	1.3	1.3
TGCCTA	1.11	1.03
GGCTCG	1.05	0.956
CTTAAG	1.15	1.04
TTACAT	1.39	1.41
GCCCAT	1.09	0.92

Some values from the results shown.
TATAAA | binding signal (ETS1): 1.22
GCCCAT | binding signal (ETS1): 1.09

Next part:

Sequence	binding signal (ETS1)	binding signal (SPDEF)
TGGTCA	1.13	0.972
CATCAT	1.01	0.94
CTCGCG	1.37	1.4
GTAAAT	1.15	1.13
AATACT	1.33	1.15
TACAAT	1.23	1.28
CTACCA	1.27	1.23
TCATTG	1.02	0.908
GGTCTG	0.976	0.992
ACTCCG	1.48	1.59
CATACC	1.11	1.14
GCCGCC	0.963	0.943
CTGTCC	1.33	1.27
ATCTCA	1.19	1.07
AGTATG	1.11	0.815
TGGCCA	1.09	0.894
CTCTAT	1.2	1.16
TCCGTC	1.34	1.6
TGCGAA	1.06	1.2
